From patent CN115746137A
No constants are given. Whether binding was seen depends on the method and setting. Some entries that bind do so weakly or less than the wild type.

The chains behind the UniProt entries cited, without tags or fusion partners. Residues count along the entry.
UniProt P01732, residues 22-235: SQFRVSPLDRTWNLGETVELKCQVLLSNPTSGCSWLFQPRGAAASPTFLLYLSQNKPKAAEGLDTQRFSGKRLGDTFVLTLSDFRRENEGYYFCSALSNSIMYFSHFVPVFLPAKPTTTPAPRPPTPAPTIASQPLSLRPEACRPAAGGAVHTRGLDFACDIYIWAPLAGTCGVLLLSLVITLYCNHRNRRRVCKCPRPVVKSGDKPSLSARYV

Target: CD8抗原 (on the cell surface; CD8 T cells of human PBMC) (human) (UniProt P01732)
Test: staining of cell-surface CD8 (Fig. 2A); method not described further

B1: CD8-7抗体 (antibody, V domains shown)
VH: EVQLQQSGAEVKKPGASVKVSCKASGFNIKDTYIHWVRQAPGKGLEWMGRIDPANDNTLYARKFQGRVTITADTSTNTAYMELSSLRSEDTAVYYCTRGYGYYVFDTWGQGTTVTVSS
VL: DIKMTQSPSSLSASVGDRVTITCRTSRSISQYLAWYQEKPGKTNKLLIYSGSTLQSGIPSRFSGSGSGTDFTLTISSLQPEDFATYYCQQVNEFPVTFGAGTKLEIK
binding: binds
